Measurements as given in paper PMC6704105.
Results are given in words; binding and its absence hold for the method and conditions named. Binding seen in cells or lysates may run through a third protein. Here binding means that the protein was enriched with, or labelled near, the bait; the list need not be complete.

Protein sequences, listed by entry. Tags and fused reporters are not part of them.
UniProt P35222: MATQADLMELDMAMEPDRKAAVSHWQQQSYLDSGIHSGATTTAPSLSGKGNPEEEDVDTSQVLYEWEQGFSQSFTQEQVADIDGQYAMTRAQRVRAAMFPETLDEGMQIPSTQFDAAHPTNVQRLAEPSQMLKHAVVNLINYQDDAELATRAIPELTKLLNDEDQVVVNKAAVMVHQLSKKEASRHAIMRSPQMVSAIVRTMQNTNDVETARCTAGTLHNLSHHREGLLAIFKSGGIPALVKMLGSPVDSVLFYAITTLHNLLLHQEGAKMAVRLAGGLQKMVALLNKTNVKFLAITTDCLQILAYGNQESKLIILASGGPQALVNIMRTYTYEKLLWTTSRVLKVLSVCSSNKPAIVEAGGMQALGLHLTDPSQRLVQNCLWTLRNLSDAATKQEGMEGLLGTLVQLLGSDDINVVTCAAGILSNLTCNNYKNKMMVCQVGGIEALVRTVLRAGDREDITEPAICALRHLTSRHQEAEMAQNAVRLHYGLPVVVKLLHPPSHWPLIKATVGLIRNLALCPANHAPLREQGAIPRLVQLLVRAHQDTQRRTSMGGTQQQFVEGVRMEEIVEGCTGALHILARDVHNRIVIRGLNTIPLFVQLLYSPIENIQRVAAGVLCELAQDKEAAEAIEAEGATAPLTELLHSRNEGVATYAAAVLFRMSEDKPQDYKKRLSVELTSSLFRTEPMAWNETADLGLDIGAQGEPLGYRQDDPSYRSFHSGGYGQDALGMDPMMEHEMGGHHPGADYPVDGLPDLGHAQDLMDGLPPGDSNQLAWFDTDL
UniProt O43524: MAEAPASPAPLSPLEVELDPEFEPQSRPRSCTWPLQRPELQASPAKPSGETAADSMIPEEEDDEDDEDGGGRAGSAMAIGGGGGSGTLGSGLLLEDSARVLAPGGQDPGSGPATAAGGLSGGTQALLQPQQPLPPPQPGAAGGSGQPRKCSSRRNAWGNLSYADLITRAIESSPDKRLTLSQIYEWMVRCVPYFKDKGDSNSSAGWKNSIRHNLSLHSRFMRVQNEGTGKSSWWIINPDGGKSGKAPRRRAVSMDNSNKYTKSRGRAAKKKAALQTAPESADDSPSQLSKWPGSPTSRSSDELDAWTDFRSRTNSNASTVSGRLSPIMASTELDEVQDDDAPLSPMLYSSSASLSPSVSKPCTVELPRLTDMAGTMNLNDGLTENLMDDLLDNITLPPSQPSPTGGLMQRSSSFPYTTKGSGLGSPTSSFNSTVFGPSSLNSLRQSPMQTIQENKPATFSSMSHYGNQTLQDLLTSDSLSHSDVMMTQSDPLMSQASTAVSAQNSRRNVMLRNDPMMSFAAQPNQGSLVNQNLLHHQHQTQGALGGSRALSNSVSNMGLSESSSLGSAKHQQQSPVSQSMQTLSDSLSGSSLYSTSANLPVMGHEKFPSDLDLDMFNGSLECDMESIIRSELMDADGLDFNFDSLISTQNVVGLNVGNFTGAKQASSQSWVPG
UniProt P51532: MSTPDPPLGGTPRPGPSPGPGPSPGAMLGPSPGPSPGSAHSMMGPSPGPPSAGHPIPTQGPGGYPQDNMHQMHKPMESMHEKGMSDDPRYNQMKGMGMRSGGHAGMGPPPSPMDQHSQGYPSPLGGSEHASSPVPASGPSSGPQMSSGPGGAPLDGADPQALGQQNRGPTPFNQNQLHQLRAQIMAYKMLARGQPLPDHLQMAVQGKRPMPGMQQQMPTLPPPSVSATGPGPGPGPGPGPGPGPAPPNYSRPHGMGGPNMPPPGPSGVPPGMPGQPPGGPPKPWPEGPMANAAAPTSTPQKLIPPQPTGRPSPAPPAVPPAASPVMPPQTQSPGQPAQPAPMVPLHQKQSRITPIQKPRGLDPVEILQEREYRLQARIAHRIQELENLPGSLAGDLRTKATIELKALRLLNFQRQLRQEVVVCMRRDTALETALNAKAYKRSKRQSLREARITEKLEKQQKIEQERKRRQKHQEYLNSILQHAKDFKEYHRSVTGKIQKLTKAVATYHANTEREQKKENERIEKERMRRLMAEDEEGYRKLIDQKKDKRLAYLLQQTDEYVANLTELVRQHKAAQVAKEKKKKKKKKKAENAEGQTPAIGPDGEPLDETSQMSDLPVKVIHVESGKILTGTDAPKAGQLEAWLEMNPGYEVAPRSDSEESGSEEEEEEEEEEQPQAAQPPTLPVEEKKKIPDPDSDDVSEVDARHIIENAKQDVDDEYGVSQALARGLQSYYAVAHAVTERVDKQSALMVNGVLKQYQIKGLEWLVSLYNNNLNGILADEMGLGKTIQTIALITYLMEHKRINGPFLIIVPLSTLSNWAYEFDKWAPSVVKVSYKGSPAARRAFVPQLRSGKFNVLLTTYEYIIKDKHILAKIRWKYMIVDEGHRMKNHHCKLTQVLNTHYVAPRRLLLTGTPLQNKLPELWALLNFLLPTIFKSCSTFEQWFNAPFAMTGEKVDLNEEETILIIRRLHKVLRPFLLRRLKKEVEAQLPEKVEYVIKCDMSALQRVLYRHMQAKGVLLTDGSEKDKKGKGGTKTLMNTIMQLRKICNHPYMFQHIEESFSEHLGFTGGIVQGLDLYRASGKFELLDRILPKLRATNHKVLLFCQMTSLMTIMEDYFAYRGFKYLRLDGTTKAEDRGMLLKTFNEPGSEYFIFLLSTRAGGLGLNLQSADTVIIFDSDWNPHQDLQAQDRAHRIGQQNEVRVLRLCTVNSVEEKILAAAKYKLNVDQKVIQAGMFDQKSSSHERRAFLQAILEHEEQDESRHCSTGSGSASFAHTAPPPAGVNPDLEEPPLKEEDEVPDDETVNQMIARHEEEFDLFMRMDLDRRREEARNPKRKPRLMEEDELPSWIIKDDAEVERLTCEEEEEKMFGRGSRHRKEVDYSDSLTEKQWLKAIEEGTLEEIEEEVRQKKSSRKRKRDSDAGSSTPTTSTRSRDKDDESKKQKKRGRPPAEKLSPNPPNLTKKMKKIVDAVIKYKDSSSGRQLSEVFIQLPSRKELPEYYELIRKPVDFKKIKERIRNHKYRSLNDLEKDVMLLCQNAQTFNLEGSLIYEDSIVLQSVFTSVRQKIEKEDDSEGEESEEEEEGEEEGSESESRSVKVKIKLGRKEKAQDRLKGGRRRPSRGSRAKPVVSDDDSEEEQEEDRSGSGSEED
UniProt P09874: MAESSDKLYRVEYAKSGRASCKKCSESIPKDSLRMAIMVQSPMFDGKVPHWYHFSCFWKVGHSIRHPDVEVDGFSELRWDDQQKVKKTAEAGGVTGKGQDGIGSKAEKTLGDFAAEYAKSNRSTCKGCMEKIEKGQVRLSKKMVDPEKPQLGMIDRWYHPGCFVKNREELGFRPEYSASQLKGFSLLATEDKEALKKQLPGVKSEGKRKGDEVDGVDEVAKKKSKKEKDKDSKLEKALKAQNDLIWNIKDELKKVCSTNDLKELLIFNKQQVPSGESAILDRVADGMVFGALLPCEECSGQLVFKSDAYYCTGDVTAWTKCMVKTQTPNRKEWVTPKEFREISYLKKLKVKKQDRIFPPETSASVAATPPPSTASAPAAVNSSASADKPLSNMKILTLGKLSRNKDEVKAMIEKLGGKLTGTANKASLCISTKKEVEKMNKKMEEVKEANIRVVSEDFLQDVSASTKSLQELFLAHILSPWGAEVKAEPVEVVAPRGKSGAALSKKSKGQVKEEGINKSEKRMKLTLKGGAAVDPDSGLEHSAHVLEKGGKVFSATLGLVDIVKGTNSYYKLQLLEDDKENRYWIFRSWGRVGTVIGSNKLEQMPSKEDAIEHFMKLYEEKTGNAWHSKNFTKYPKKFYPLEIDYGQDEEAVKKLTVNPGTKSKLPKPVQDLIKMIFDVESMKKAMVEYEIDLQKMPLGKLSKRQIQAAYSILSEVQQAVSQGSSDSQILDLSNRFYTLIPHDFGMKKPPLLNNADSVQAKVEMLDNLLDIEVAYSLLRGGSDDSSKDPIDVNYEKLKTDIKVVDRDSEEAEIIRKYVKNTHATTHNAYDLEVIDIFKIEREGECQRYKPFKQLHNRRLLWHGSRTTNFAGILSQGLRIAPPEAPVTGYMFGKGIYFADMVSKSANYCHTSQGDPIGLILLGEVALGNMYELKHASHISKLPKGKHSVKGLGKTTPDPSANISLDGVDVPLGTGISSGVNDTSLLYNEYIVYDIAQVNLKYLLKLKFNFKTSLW

B1: Jun Dimerization Protein 2 (JDP2) (protein, UniProt Q8WYK2 1-163)
chain: MMPGQIPDPSVTTGSLPGLGPLTGLPSSALTVEELKYADIRNLGAMIAPLHFLEVKLGKRPQPVKSELDEEEERRKRRREKNKVAAARCRNKKKERTEFLQRESERLELMNAELKTQIEELKQERQQLILMLNRHRPTCIVRTDSVKTPESEGNPLLEQLEKK

Target: β-catenin (β-catenin-transduced 293FT cells) (UniProt P35222)
Test: affinity purification with mass spectrometry; chromatin fraction of CPT (10 μM, 1 h)-treated β-catenin-transduced 293FT cells, treated with DNAase; anti-β-catenin antibody and protein G-agarose overnight at 4 °C; wash 25 mM HEPES pH 7.4, 150 mM NaCl, 0.5% NP-40; five bands excised for MS; anti-IgG control

binding, binds:
FOXO3 (from UniProt O43524 1-673)
SMARCA4 (from UniProt P51532 1-1647)
poly (ADP-ribose) polymerase 1 (PARP1) (from UniProt P09874 1-1014) (enzyme)
B1
